The values that follow come from the supplement of paper PMC10849652.

By UniProt entry, the sequences of proteins in these tests, tags left out. Where a name states a change or a piece, a line headed by the entry shows the natural chain unless it says otherwise.
UniProt Q9UHW5, whole entry, looked up: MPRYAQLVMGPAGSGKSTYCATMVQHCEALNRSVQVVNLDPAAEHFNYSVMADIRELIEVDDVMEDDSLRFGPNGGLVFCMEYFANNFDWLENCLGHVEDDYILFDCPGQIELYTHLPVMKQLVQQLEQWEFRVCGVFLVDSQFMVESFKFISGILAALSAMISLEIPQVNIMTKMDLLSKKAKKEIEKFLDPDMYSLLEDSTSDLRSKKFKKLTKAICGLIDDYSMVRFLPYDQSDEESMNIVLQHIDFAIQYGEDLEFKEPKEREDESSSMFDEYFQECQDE
UniProt Q14691: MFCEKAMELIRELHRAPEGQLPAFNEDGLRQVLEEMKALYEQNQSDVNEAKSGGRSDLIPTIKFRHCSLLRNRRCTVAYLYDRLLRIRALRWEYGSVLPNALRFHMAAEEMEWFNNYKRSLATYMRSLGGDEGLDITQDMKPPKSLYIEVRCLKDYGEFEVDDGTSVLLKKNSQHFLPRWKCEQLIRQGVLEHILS
UniProt Q53EU6: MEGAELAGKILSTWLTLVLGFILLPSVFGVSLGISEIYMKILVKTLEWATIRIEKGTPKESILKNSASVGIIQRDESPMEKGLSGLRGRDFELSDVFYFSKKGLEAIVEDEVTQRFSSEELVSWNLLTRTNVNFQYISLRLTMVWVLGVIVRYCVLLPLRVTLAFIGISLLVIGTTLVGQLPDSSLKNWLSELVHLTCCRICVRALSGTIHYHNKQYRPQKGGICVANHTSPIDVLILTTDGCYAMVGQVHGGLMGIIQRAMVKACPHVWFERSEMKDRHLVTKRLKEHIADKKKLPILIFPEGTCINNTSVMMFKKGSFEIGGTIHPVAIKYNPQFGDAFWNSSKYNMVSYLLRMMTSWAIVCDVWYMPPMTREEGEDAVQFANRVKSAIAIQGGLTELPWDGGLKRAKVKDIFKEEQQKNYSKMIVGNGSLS
UniProt P36959: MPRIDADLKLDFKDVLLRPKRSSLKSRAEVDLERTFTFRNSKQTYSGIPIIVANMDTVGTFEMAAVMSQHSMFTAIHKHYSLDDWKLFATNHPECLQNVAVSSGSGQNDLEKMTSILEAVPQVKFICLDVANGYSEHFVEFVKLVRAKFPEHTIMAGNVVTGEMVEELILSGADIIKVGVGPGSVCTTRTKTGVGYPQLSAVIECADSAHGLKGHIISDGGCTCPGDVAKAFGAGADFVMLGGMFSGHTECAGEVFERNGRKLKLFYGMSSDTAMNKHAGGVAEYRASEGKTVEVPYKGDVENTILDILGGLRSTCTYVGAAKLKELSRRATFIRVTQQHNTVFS
UniProt Q8IW92: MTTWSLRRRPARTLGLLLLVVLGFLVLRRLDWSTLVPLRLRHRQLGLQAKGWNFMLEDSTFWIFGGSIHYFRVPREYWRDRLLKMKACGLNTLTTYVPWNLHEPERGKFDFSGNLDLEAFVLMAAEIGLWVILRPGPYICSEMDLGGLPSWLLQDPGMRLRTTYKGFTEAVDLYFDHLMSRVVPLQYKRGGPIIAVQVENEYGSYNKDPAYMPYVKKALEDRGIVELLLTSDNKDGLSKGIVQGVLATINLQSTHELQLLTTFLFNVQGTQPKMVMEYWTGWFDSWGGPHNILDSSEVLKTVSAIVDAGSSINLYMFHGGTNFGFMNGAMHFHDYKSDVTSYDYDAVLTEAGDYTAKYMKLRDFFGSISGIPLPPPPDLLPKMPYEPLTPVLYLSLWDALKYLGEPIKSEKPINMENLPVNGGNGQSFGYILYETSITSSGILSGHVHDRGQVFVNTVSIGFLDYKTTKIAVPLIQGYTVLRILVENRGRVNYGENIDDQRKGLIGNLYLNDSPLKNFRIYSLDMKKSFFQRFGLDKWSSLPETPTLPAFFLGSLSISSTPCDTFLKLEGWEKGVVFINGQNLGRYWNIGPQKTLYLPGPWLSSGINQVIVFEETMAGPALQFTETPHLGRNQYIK
UniProt Q8N335: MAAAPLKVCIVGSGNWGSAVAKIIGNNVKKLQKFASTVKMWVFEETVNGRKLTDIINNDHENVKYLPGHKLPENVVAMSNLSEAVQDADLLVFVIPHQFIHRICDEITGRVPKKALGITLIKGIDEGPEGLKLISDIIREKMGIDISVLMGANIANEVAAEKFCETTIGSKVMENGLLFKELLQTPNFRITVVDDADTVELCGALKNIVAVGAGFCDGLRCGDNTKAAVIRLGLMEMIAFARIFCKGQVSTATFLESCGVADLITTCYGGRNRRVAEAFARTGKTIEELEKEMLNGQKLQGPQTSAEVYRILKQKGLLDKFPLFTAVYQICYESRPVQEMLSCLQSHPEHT
UniProt Q96EK6: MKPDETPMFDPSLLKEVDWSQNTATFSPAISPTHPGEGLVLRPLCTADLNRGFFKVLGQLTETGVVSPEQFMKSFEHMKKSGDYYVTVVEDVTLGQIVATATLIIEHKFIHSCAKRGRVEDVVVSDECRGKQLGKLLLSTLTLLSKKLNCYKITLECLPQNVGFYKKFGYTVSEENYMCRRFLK
UniProt P17174: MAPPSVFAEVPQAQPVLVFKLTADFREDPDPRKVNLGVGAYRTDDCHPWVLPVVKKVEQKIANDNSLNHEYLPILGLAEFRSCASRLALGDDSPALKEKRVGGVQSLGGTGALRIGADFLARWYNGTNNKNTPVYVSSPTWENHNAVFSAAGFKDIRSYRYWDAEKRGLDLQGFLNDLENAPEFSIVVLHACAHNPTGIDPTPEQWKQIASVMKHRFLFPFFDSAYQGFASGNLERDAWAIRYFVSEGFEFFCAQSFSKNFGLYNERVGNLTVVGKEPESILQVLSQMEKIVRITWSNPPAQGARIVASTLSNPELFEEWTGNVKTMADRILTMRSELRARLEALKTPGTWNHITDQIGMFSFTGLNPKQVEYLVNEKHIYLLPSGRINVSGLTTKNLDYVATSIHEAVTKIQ
UniProt Q86SX6: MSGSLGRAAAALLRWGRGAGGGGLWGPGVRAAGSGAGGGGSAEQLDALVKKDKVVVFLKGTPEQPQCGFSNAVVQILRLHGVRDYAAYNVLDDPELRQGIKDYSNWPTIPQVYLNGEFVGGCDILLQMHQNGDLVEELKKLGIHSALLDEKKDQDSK
UniProt P00367: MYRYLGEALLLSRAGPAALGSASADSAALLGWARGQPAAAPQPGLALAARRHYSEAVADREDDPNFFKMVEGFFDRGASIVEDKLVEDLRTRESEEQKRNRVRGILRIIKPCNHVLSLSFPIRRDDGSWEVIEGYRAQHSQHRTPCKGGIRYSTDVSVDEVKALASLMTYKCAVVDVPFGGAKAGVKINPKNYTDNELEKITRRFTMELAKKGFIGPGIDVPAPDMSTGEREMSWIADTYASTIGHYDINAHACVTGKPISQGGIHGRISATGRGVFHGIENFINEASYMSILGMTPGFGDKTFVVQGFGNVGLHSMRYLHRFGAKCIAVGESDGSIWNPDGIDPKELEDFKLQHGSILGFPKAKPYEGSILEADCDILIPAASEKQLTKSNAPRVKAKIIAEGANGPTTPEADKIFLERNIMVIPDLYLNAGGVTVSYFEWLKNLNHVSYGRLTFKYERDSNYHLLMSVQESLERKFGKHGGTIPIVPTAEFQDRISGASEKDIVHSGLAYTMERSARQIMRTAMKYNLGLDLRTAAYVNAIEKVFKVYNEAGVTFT
UniProt Q4ZG55: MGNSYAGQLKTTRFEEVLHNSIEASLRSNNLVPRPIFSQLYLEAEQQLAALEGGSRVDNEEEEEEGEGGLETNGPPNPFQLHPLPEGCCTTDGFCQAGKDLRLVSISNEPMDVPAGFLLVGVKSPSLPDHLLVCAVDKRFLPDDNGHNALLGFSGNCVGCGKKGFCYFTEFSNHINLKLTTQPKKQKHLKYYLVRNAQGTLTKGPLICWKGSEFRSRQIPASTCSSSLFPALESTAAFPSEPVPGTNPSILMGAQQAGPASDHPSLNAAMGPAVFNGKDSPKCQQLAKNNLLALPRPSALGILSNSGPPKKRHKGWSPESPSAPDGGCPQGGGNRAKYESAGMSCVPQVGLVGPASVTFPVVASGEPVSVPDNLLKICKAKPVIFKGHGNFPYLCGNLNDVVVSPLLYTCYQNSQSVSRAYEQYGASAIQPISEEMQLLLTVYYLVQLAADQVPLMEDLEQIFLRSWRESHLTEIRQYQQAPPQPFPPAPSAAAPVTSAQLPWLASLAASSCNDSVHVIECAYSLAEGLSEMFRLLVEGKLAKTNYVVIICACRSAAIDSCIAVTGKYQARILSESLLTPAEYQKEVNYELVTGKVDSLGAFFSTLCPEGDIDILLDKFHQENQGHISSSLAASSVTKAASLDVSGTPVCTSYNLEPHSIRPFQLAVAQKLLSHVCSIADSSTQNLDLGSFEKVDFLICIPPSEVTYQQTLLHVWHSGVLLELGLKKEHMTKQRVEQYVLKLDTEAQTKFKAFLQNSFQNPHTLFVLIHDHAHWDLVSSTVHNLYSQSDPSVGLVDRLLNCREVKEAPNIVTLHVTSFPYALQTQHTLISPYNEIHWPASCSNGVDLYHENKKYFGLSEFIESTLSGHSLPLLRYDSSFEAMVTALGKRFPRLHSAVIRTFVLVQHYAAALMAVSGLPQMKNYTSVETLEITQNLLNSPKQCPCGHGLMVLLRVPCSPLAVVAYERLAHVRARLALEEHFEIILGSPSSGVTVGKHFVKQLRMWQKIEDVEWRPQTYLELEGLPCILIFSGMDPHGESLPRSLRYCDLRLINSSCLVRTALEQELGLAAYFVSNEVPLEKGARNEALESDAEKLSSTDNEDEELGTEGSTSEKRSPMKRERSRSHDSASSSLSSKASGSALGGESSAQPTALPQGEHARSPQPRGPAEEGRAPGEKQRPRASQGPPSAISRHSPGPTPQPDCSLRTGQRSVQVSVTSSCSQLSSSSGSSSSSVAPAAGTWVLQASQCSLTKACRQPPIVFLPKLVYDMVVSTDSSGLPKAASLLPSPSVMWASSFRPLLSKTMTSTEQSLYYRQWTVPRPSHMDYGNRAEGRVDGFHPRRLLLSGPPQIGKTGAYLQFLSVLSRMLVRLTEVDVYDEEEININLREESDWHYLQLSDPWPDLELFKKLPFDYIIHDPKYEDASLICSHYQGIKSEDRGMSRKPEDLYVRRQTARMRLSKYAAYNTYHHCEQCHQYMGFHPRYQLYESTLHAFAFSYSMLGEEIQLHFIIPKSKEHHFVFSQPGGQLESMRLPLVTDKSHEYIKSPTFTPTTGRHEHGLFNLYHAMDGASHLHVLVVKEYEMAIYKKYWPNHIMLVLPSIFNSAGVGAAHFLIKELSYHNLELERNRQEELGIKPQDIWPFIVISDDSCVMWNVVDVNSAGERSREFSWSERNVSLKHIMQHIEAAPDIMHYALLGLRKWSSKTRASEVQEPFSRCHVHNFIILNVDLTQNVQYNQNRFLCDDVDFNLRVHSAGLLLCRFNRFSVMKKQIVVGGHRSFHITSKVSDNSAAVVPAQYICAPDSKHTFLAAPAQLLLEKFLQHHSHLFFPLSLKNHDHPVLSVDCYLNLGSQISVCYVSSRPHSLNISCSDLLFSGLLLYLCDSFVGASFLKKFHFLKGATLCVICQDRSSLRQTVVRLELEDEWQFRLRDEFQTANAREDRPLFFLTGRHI
UniProt Q8WWB7: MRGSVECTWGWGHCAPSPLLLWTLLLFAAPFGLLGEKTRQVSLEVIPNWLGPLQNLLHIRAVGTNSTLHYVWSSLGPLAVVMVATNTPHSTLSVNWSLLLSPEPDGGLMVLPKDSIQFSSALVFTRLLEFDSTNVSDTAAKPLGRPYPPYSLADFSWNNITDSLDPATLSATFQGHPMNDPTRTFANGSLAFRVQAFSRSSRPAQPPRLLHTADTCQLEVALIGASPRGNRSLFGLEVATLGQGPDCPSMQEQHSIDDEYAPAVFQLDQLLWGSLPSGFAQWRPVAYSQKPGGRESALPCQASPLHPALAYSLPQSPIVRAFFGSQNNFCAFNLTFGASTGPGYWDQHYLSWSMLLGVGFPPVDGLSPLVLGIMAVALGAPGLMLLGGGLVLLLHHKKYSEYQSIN
UniProt Q2TAP0: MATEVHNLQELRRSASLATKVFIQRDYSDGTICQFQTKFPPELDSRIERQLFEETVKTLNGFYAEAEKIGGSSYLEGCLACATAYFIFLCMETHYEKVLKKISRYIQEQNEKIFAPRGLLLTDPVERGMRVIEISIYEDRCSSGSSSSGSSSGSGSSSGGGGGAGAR
UniProt P62879, whole entry, looked up: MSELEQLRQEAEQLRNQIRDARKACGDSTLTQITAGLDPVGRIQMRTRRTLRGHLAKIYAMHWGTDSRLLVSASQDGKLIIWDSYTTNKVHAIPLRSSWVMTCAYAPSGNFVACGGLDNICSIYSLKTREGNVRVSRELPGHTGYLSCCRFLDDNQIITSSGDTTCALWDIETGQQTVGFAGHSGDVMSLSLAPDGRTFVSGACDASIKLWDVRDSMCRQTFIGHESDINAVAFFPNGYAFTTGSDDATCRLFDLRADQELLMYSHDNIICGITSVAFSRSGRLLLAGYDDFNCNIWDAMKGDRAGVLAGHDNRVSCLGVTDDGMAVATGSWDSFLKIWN
UniProt Q7Z5G4, whole entry, looked up: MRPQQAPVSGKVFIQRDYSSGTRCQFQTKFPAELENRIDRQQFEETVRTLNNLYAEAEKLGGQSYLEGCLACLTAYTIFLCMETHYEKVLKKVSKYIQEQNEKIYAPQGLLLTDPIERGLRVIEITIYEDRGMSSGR

The other results are listed elsewhere or left out.

Compound in the first assay: CON(C)C(=O)N1N=C(c2cc(F)ccc2F)S[C@@]1(CCCN)c1ccccc1 [filanesib]
Description: log2 fold change, soluble protein after heating vs DMSO (PISA); higher = thermal stabilisation; K562 cells, 10 uM, 30 min; active = over 0.2 and 3.5 SD of the protein, either way, in both replicates (recomputed). In short, it runs like this:
(§1)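 For each measurement, 10 μM compound was applied for 30 min to K562 cells at 2×10^6 cells/mL. Aliquots were heated for 3 min across 48°C-58°C, pooled, and extracted in PBS with 0.5% NP-40 at 4°C; the supernatant after 21,000xg for 90 min was soluble protein. This was quantified by TMTpro 16plex LC-MS/MS with channel sums equalised, and thermal stability was reported relative to control samples from duplicates, on a log2 fold-change scale.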
On to GMEB1 (UniProt Q9Y692), for which the log2 fold change was inactive: 0.205.
Consider GLO1 (UniProt Q04760), for which the log2 fold change is inactive: -0.053.
Still for that read-out and setting: the figure for GOPC (UniProt Q9HD26) is inactive: 0.259; for GON4L (UniProt Q3T8J9) it is inactive: -0.048.
Still for that read-out and setting: the figure for GNB4 (UniProt Q9HAV0) is inactive: 0.135; for GPN3 isoform 2 (UniProt Q9UHW5) it is inactive: 0.061.
The same measure, in the same setting: the figure for GMPS (UniProt P49915) is inactive: -0.136; for GINS1 (UniProt Q14691) it is inactive: -0.038; for GIGYF2 (UniProt Q6Y7W6) it is inactive: 0.008.
As for GLS (UniProt O94925), the log2 fold change was inactive: 0.029.
Same read-out and setting: for GPAT3 (UniProt Q53EU6) the value was inactive: 0.05.
Still for that read-out and setting: for GNPTAB (UniProt Q3T906) the value was inactive: 0.08.
Same read-out and setting: the figure for GMPR (UniProt P36959) is inactive: -0.042; for GLB1L2 (UniProt Q8IW92) it is inactive: 0.036; for GOLT1B (UniProt Q9Y3E0) it is inactive: -0.001.
As to GMEB2 (UniProt Q9UKD1), the log2 fold change is inactive: 0.04.
For GPD1L (UniProt Q8N335), the log2 fold change is inactive: 0.003.
The same measure, in the same setting: for GMFG (UniProt O60234) the value was inactive: 0.022; for GNPNAT1 (UniProt Q96EK6), inactive: -0.009; for GOT2 (UniProt P00505), inactive: -0.044.
Same read-out and setting: for GLUL (UniProt P15104) the value was inactive: 0.002; for GLG1 isoform 2 (UniProt Q92896), inactive: -0.048; for GLYR1 (UniProt Q49A26), inactive: 0.125.
On the same count and under the same terms, the figure for GOT1 (UniProt P17174) is inactive: -0.026.
Take GMNN (UniProt O75496): the log2 fold change is inactive: 0.014.
Still for that read-out and setting: for GP1BB isoform 2 (UniProt P13224) the value was inactive: -0.051; for GLRX5 (UniProt Q86SX6), inactive: 0.011; for GLUD1 (UniProt P00367), inactive: -0.118.
GREB1 (UniProt Q4ZG55): the log2 fold change was inactive: 0.074.
With GNPDA1 (UniProt P46926), the log2 fold change is inactive: -0.008.
As to GLMP (UniProt Q8WWB7), the log2 fold change is inactive: -0.076.
On to GLRX3 (UniProt O76003), for which the log2 fold change was inactive: -0.056.
For the target GNPAT (UniProt O15228), the log2 fold change is inactive: -0.054.
Take GON7 (UniProt Q9BXV9): the log2 fold change is inactive: 0.085.
With GOLGA7B (UniProt Q2TAP0), the log2 fold change was inactive: 0.147.
The same measure, in the same setting: for GNB2 (UniProt P62879) the value was inactive: 0.034; for GOLGA7 (UniProt Q7Z5G4), inactive: 0.006.
On the same count and under the same terms, for GINS3 (UniProt Q9BRX5) the value was inactive: -0.026.

Compound in a further assay: CO[C@H]1C[C@@H]2CC[C@@H](C)[C@@](O)(O2)C(=O)C(=O)N2CCCC[C@H]2C(=O)O[C@H]([C@H](C)C[C@@H]2CC[C@H](n3cnnn3)[C@H](OC)C2)CC(=O)[C@H](C)/C=C(\C)[C@@H](O)[C@@H](OC)C(=O)[C@H](C)C[C@H](C)/C=C/C=C/C=C/1C [zotarolimus]
The description is as above. In a few lines:
as §1
GMEB1 (UniProt Q9Y692): the log2 fold change is inactive: 0.042.
Still for that read-out and setting: the figure for GLO1 (UniProt Q04760) is inactive: -0.022; for GOPC (UniProt Q9HD26) it is inactive: 0.329.
The same measure, in the same setting: for GON4L (UniProt Q3T8J9) the value was inactive: 0.001; for GNB4 (UniProt Q9HAV0), inactive: -0.013; for GPN3 isoform 2 (UniProt Q9UHW5), inactive: -0.048.
As for GMPS (UniProt P49915), the log2 fold change is inactive: 0.027.
Same read-out and setting: the figure for GINS1 (UniProt Q14691) is inactive: 0.031.
Still for that read-out and setting: for GIGYF2 (UniProt Q6Y7W6) the value was inactive: 0.016; for GLS (UniProt O94925), inactive: 0.027.
Turning to GPAT3 (UniProt Q53EU6), the log2 fold change was inactive: -0.003.
On to GNPTAB (UniProt Q3T906), for which the log2 fold change is inactive: 0.001.
For the target GMPR (UniProt P36959), the log2 fold change is inactive: 0.024.
On to GLB1L2 (UniProt Q8IW92), for which the log2 fold change is inactive: -0.197.
Consider GOLT1B (UniProt Q9Y3E0), for which the log2 fold change is inactive: -0.029.
The same measure, in the same setting: the figure for GMEB2 (UniProt Q9UKD1) is inactive: 0.03; for GPD1L (UniProt Q8N335) it is inactive: -0.043; for GMFG (UniProt O60234) it is inactive: 0.062.
Still for that read-out and setting: for GNPNAT1 (UniProt Q96EK6) the value was inactive: -0.023; for GOT2 (UniProt P00505), inactive: 0.003; for GLUL (UniProt P15104), inactive: -0.154.
On the same count and under the same terms, the figure for GLG1 isoform 2 (UniProt Q92896) is inactive: -0.049.
As for GLYR1 (UniProt Q49A26), the log2 fold change was inactive: -0.04.
The same measure, in the same setting: for GOT1 (UniProt P17174) the value was inactive: -0.004; for GMNN (UniProt O75496), inactive: -0.017.
Same read-out and setting: for GP1BB isoform 2 (UniProt P13224) the value was inactive: -0.058; for GLRX5 (UniProt Q86SX6), inactive: 0.004.
The same measure, in the same setting: for GLUD1 (UniProt P00367) the value was inactive: -0.007; for GREB1 (UniProt Q4ZG55), inactive: 0.07.
For the target GNPDA1 (UniProt P46926), the log2 fold change was inactive: -0.001.
Same read-out and setting: the figure for GLMP (UniProt Q8WWB7) is inactive: -0.257.
On the same count and under the same terms, the figure for GLRX3 (UniProt O76003) is inactive: 0.056; for GNPAT (UniProt O15228) it is inactive: 0.064; for GON7 (UniProt Q9BXV9) it is inactive: -0.001.
Same read-out and setting: the figure for GOLGA7B (UniProt Q2TAP0) is inactive: -0.147; for GNB2 (UniProt P62879) it is inactive: -0.006; for GOLGA7 (UniProt Q7Z5G4) it is inactive: -0.066.
For GINS3 (UniProt Q9BRX5), the log2 fold change was inactive: 0.033.
